PubChem BioAssay AID743454 | Peter MacCallum Cancer Centre – 2014
Purpose: 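Genes whose loss kills vorinostat-resistant colon cancer cells under vorinostat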 (primary screen). Cells: human HCT116-VR colon cancer cells, selected for vorinostat resistance. Reagent: siRNA pool against human genes, 40 nM siRNA pool. Timing: vorinostat for 24 h, read-out about 72 h after transfection. Conditions: vorinostat at 2.5 µM final. Measured: 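Two measures, CellTiter-Fluor viability and luminescent caspase 3/7 activity, each as fold change against same-plate mock wells, mean of duplicates, then screen-wide robust z-score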. Reading the numbers: viability robust z-score: higher = more viable cells than screen typical; caspase robust z-score: higher = more caspase 3/7 activity than screen typical. Rule for the call: 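a knock-down is a hit when classed RV1 or RV2 for lowered viability, or CA1 or CA2 for caspase activation; those lethal without drug were dropped; hits were retested singly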.
The whole screen tested about 18,000 reagents; below is a part drawn at random. 450 of them (2.5%) count as active. 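Single biological run; no consistent viability z cut-off exists, so the class columns, not z-scores, define the calls.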 A number with no mark means an inactive call.

The opening 4 entries as a preview:
| gene | PubChem SID | viability hit class | caspase hit class | viability robust z-score | caspase robust z-score |
| --- | --- | --- | --- | --- | --- |
| CLTRN (collectrin, amino acid transport regulator) | SID152147014 | no change | no change | 0.77 | 0.36 |
| MYRFL (myelin regulatory factor like) | SID135623609 | no change | no change | -1.82 | 0.42 |
| STK4 (serine/threonine kinase 4) | SID56478776 | no change | no change | 1.09 | -0.64 |
| PAPOLG (poly(A) polymerase gamma) | SID134314554 | no change | no change | -0.36 | -0.86 |

The list itself, from the first entry:
| gene | PubChem SID | viability hit class | caspase hit class | viability robust z-score | caspase robust z-score |
| --- | --- | --- | --- | --- | --- |
| CLTRN (collectrin, amino acid transport regulator) | SID152147014 | no change | no change | 0.77 | 0.36 |
| MYRFL (myelin regulatory factor like) | SID135623609 | no change | no change | -1.82 | 0.42 |
| STK4 (serine/threonine kinase 4) | SID56478776 | no change | no change | 1.09 | -0.64 |
| PAPOLG (poly(A) polymerase gamma) | SID134314554 | no change | no change | -0.36 | -0.86 |
| SOX6 (SRY-box transcription factor 6) | SID152148248 | no change | no change | -0.56 | -0.6 |
| ZNF99 (zinc finger protein 99) | SID135625571 | no change | no change | 0.94 | -0.66 |
| SLC14A2 | SID152148286 | no change | no change | 0.37 | -0.84 |
| HOXC12 (homeobox C12) | SID134321596 | no change | no change | -0.14 | 1.94 |
| CFHR1 (complement factor H related 1) | SID135621468 | RV2 (reduced viability) (active) | no change | -3.04 | 2.02 |
| RNF17 (ring finger protein 17) | SID152155219 | no change | no change | 0.31 | -0.78 |
| ENY2 (ENY2 transcription and export complex 2 subunit) | SID134322646 | no change | no change | -1.09 | 3.99 |
| KLK15 (kallikrein related peptidase 15) | SID135621102 | no change | no change | -1.29 | -0.04 |
| MAD2L1BP (MAD2L1 binding protein) | SID135624067 | no change | no change | -0.98 | 4.12 |
| DAZAP2 (DAZ associated protein 2) | SID134324609 | no change | no change | -0.2 | -0.61 |
| MYL10 (myosin light chain 10) | SID134319600 | no change | no change | -1.64 | 0.88 |
| SPC25 (SPC25 component of NDC80 kinetochore complex) | SID134321239 | no change | no change | -0.46 | 0.96 |
| POU2AF1 (POU class 2 homeobox associating factor 1) | SID134323870 | no change | no change | 1.91 | 0.28 |
| DEFB107B (defensin beta 107B) | SID135625589 | no change | no change | 0.2 | 0.27 |
| TMEM11 (transmembrane protein 11) | SID134310892 | no change | no change | -1.93 | 0.38 |
| ARMC10 (armadillo repeat containing 10) | SID134322067 | no change | no change | -0.8 | -1.23 |
| RNASE7 (ribonuclease A family member 7) | SID152149855 | no change | no change | -1.34 | -0.28 |
| DUSP1 (dual specificity phosphatase 1) | SID56478660 | no change | no change | -0.7 | 0.2 |
| RIBC1 (RIB43A domain with coiled-coils 1) | SID134320983 | no change | no change | 1.06 | -0.16 |
| KRTAP15-1 (keratin associated protein 15-1) | SID134322539 | no change | no change | 1.29 | -0.49 |
| OLFM2 (olfactomedin 2) | SID152154666 | no change | no change | -0.18 | 1.2 |
| RPL32 (ribosomal protein L32) | SID152154238 | no change | no change | -5.2 | -1.05 |
| EIF4B (eukaryotic translation initiation factor 4B) | SID135623930 | no change | no change | -0.55 | -1.19 |
| ZNF333 (zinc finger protein 333) | SID152150388 | no change | no change | 0.36 | -0.26 |
| EOGT (EGF domain specific O-linked N-acetylglucosamine transferase) | SID134325649 | no change | no change | -0.28 | 0.03 |
| NSUN7 (NOP2/Sun RNA methyltransferase family member 7) | SID134322037 | no change | no change | -0.02 | -0.68 |
| TTC29 (tetratricopeptide repeat domain 29) | SID152149319 | no change | no change | -0.72 | -0.21 |
| MRRF (mitochondrial ribosome recycling factor) | SID134320533 | no change | no change | 0.58 | -0.9 |
| LEO1 (LEO1 component of Paf1/RNA polymerase II complex) | SID134320566 | no change | no change | 0.49 | -0.52 |
| DGKI (diacylglycerol kinase iota) | SID56479093 | no change | no change | 0.83 | -0.77 |
| ATP5MG (ATP synthase membrane subunit g) | SID135623431 | no change | no change | -0.8 | -0.68 |
| TBCEL (tubulin folding cofactor E like) | SID135622971 | no change | no change | 0.38 | 0.61 |
| CBFA2T3 (CBFA2/RUNX1 partner transcriptional co-repressor 3) | SID134321145 | no change | no change | 0.68 | 0.34 |
| HNRNPDL (heterogeneous nuclear ribonucleoprotein D like) | SID152148095 | no change | no change | 0.84 | -0.84 |
| RBM39 (RNA binding motif protein 39) | SID134316274 | no change | no change | -2.78 | 4.91 |
| TGFBR1 (transforming growth factor beta receptor 1) | SID152153272 | no change | no change | 1.48 | 0.62 |
| MDH2 (malate dehydrogenase 2) | SID134313312 | no change | no change | 1.27 | -0.12 |
| PFKFB2 (6-phosphofructo-2-kinase/fructose-2,6-biphosphatase 2) | SID135621246 | no change | no change | 0.09 | 1.57 |
| ZNF212 (zinc finger protein 212) | SID134321459 | no change | no change | -0.7 | 0.32 |
| SIX2 (SIX homeobox 2) | SID134320989 | no change | no change | -1.02 | -0.54 |
| KRR1 (KRR1 small subunit processome component) | SID135623497 | no change | no change | 0.94 | 0.36 |
| KCNK6 (potassium two pore domain channel subfamily K member 6) | SID134311683 | no change (active) | CA1 (caspase activation) | -1.22 | 5.75 |
| C10orf55 (chromosome 10 putative open reading frame 55) | SID134329793 | no change | no change | -0.7 | -1.72 |
| ALDH3A2 (aldehyde dehydrogenase 3 family member A2) | SID135621760 | no change | no change | 1.17 | -0.34 |
| ST6GALNAC2 (ST6 N-acetylgalactosaminide alpha-2,6-sialyltransferase 2) | SID152156551 | no change | no change | 0.96 | 4.29 |
| COL4A1 (collagen type IV alpha 1 chain) | SID135622160 | no change | no change | 0.89 | -0.05 |
| ADGRG1 (adhesion G protein-coupled receptor G1) | SID134310516 | no change | no change | -0.08 | -0.26 |
| PAGE3 (PAGE family member 3) | SID135624470 | no change | no change | -1.46 | -0.02 |
| ARPP21 (cAMP regulated phosphoprotein 21) | SID152154337 | no change | no change | -1.29 | -0.22 |
| NCAN (neurocan) | SID152155175 | no change | no change | -2.82 | 2.78 |
| TMEM218 (transmembrane protein 218) | SID135624573 | no change | no change | -0.34 | -0.76 |
| RAD51D (RAD51 paralog D) | SID134321402 | no change | no change | 1.08 | -0.4 |
| PTGER4 (prostaglandin E receptor 4) | SID134311145 | RV2 (reduced viability) (active) | no change | -4.98 | 5.04 |
| ZNF582 (zinc finger protein 582) | SID135623011 | no change | no change | -0.1 | 1.81 |
| ALOX15B (arachidonate 15-lipoxygenase type B) | SID152149765 | no change | no change | -0.44 | -0.26 |
| CHRND (cholinergic receptor nicotinic delta subunit) | SID134311565 | no change | no change | -1.37 | 1 |
| CDC42BPB (CDC42 binding protein kinase beta) | SID152149037 | no change | no change | 0.01 | -0.68 |
| BMP7 (bone morphogenetic protein 7) | SID134315919 | no change | no change | -1.19 | 0.22 |
| FGF8 (fibroblast growth factor 8) | SID134317905 | no change | no change | -0.36 | 0 |
| TNFRSF21 (TNF receptor superfamily member 21) | SID134310481 | no change | no change | 0.05 | -0.78 |
| PADI2 (peptidyl arginine deiminase 2) | SID152151833 | no change | no change | 1 | 2.29 |
| BATF3 (basic leucine zipper ATF-like transcription factor 3) | SID134314703 | no change | no change | -1.69 | 2.33 |
| NDE1 (nudE neurodevelopment protein 1) | SID134324297 | no change | no change | -3.91 | 0.34 |
| CALCOCO2 (calcium binding and coiled-coil domain 2) | SID135621977 | no change | no change | -0.44 | 1.9 |
| LYPLA2 (lysophospholipase 2) | SID134314021 | no change | no change | 0.59 | 2.13 |
| SMC2 (structural maintenance of chromosomes 2) | SID152153976 | no change | no change | -0.27 | 0.28 |
| KDF1 (keratinocyte differentiation factor 1) | SID135622973 | no change | no change | -2.59 | 0.88 |
| SPAG5 (sperm associated antigen 5) | SID134312001 | no change | no change | -0.37 | -0.03 |
| CD9 (CD9 molecule) | SID134321199 | no change | no change | -0.84 | -0.88 |
